Test results reported in patent publication US20210347848A1.
Results are given in words; binding and its absence hold for the method and conditions named. Some results given as binding are weak or reduced against the parent protein; the word gives no strength.

T1: mouse CD47 (mouse) (UniProt Q61735)
T1 sequence (looked up): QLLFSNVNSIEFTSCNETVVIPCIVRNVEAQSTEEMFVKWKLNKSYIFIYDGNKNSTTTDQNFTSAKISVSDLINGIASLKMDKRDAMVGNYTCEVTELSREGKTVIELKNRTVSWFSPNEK


Legend:
[1] = biological target: cynomolgus monkey CD47 (cynomolgus monkey); experiment: SPR
mouse CD47 (mouse) = biological target: T1, mouse CD47 (mouse); experiment: SPR

Binder	binding [1]	binding (mouse CD47 (mouse))
Decoy polypeptide C (Fc fusion) EEELQIIQPEKLLLVTVGKTATLHCTITSLFPVGPIQWFRGVGPGRVLIYNQKDGPFPRVTTVSDGTKRNNMDFSIRISSITPADVGTYYCVKFRKGSPEDVEFKSGPGTEMALGAKPSDKTHTCPPCPAPEAAGAPSVFLFPPKPKDTLMISRTPEVTCVVVDVSHEDPEVKFNWYVDGVEVHNAKTKPREEQYASTYRVVSVLTVLHQDWLNGKEYKCKVSNKALPAPIEKTISKAKGQPREPQVYTLPPSREEMTKNQVSLTCLVKGFYPSDIAVEWESNGQPENNYKTTPPVLDSDGSFFLYSKLTVDKSRWQQGNVFSCSVMHEALHNHYTQKSLSLSPG	binds	binds
Decoy polypeptide J (Fc fusion) EEELQIIQPEKLLLVTVGKTATLHCTITSLLPVGPIQWFRGVGPGRELIYNQRDGPFPRVTTVSDGTKRNNMDFSIRISSITPADVGTYYCVKFRKGTPEDVEFKSGPGTEMALGAKPSDKTHTCPPCPAPEAAGAPSVFLFPPKPKDTLMISRTPEVTCVVVDVSHEDPEVKFNWYVDGVEVHNAKTKPREEQYASTYRVVSVLTVLHQDWLNGKEYKCKVSNKALPAPIEKTISKAKGQPREPQVYTLPPSREEMTKNQVSLTCLVKGFYPSDIAVEWESNGQPENNYKTTPPVLDSDGSFFLYSKLTVDKSRWQQGNVFSCSVMHEALHNHYTQKSLSLSPG	binds	binds
Decoy polypeptide P (Fc fusion) EDELQIIQPEKSVSVAAGESATLRCAITSLFPVGPIQWFRGAGAGRVLIYNQRQGPFPRVTTVSETTKRNNLDFSISISNITPADAGTYYCIKFRKGSPDDVEFKSGAGTELSVRAKPSDKTHTCPPCPAPEAAGAPSVFLFPPKPKDTLMISRTPEVTCVVVDVSHEDPEVKFNWYVDGVEVHNAKTKPREEQYASTYRVVSVLTVLHQDWLNGKEYKCKVSNKALPAPIEKTISKAKGQPREPQVYTLPPSREEMTKNQVSLTCLVKGFYPSDIAVEWESNGQPENNYKTTPPVLDSDGSFFLYSKLTVDKSRWQQGNVFSCSVMHEALHNHYTQKSLSLSPG	binds	binds
Decoy polypeptide Q (Fc fusion) EEELQIIQPDKSISVAAGESATLHCTITSLFPVGPIQWFRGAGPGRVLIYNQRQGPFPRVTTVSDTTKRNNMDFSIRISNITPADAGTYYCIKFRKGSPDDVEFKSGAGTELSVRAKPSDKTHTCPPCPAPEAAGAPSVFLFPPKPKDTLMISRTPEVTCVVVDVSHEDPEVKFNWYVDGVEVHNAKTKPREEQYASTYRVVSVLTVLHQDWLNGKEYKCKVSNKALPAPIEKTISKAKGQPREPQVYTLPPSREEMTKNQVSLTCLVKGFYPSDIAVEWESNGQPENNYKTTPPVLDSDGSFFLYSKLTVDKSRWQQGNVFSCSVMHEALHNHYTQKSLSLSPG	binds	binds
Decoy polypeptide U (Fc fusion) EEELQIIQPDKSVLVAAGETATLRCTITSLFPVGPIQWFRGAGPGRELIYNQREGPFPRVTTVSDTTKRNNMDFSIRIGAITPADAGTYYCVKFRKGSPDDVEFKSGAGTELSVRAKPSDKTHTCPPCPAPEAAGAPSVFLFPPKPKDTLMISRTPEVTCVVVDVSHEDPEVKFNWYVDGVEVHNAKTKPREEQYASTYRVVSVLTVLHQDWLNGKEYKCKVSNKALPAPIEKTISKAKGQPREPQVYTLPPSREEMTKNQVSLTCLVKGFYPSDIAVEWESNGQPENNYKTTPPVLDSDGSFFLYSKLTVDKSRWQQGNVFSCSVMHEALHNHYTQKSLSLSPG	binds	binds
